Results published in US12246034B2, “Animal feed supplement and method” (CAN TECHNOLOGIES, INC., priority 2014, dated 2025).
Read-outs that look alike come from different tables or passages of the source.

Tested on: sows
Details: sow
Procedure: A trial was conducted at the Sterksel Research farm in the Netherlands (part of Wageningen University Research). A total of 207 sows were used in the trial allocated based on parity over 6 treatments (n=34). […] Calcium levels were the same in all diets.
Until farrowing, sows received a fixed amount of feed (3.25 kg from day 107-113 and 2.7 kg/sow/day from day 113 till farrowing). During lactation the sows were fed the diets according to a step-up feeding schedule applied (increasing with 0.5 kg/sow/day) the same over the 6 treatments aiming at a peak intake of 7.5 kg/sow/day. Piglets were weaned from the sow at 27 days of age. Performance of sows (e.g. weight, backfat, piglets born alive, stillborn piglets, mortality of piglets) and piglets (e.g. weight at birth, after 48 hours and weaning) was measured on all sows and litters. A subset of sows (19-20 per treatment) was examined more in detail to get insight in the possible mode of action of nitrate. On this subset, blood samples were collected within 4 minutes after birth from 2 piglets out of every 4 piglets born. Blood gasses of umbilical cord blood were analyzed using the i-STAT handheld (Abbott). Vitality of piglets was scored within 30 seconds after birth according to Baxter et al. (2008) with 1 being the lowest and 4 being the highest score for vitality.

[1] = 0.03% nitrate in lactation diet
[2] = 0.06% nitrate in lactation diet
[3] = 0.09% nitrate in lactation diet
[4] = 0.12% nitrate in lactation diet
[5] = 0.15% nitrate in lactation diet

O=[N+]([O-])O [Nitrate, nitrate]
% backfat change [1]: −17.0% | % weight change farrow - wean [1]: −5.4% | Backfat at weaning [1]: 12.8 mm | Body weight at weaning [1]: 228.5 kg | body weight after farrowing [1]: 241.6 kg | % backfat change [2]: −19.4% | % weight change farrow - wean [2]: −5.0% | Backfat at weaning [2]: 12.6 mm | Body weight at weaning [2]: 228.1 kg | body weight after farrowing [2]: 240.7 kg | % backfat change [3]: −21.6% | % weight change farrow - wean [3]: −5.9% | Backfat at weaning [3]: 12.2 mm | Body weight at weaning [3]: 226.6 kg | body weight after farrowing [3]: 240.8 kg | % backfat change [4]: −18.2% | % weight change farrow - wean [4]: −6.3% | Backfat at weaning [4]: 12.7 mm | Body weight at weaning [4]: 224.8 kg | body weight after farrowing [4]: 240.0 kg | % backfat change [5]: −19.3% | % weight change farrow - wean [5]: −4.8% | Backfat at weaning [5]: 12.5 mm | Body weight at weaning [5]: 227.5 kg | body weight after farrowing [5]: 240.0 kg | body weight at farrowing, net change (difference across the nitrate range) (across the nitrate range): 1.8 kg
